# Data reported in patent US8298519B2, “Hair treatment compositions incorporating hair substantive polymers” (Conopco, Inc., priority 2006, dated 2012).
# Test: Uptake and substantivity of dihydroxybenzene isomers on human hair (packed hair column, gravimetric)
# Conditions: for Substantivity on hair (%): retained on hair after 3x ethanol/water (50:50) rinse; for Uptake on hair (%): retained on hair column after initial elution, ethanol/water solution
SMILES,Substantivity on hair (%),Uptake on hair (%)
"Oc1ccc(O)cc1 [1,4 dihydroxybenzene]",7,33
"Oc1ccccc1O [1,2 dihydroxybenzene]",88,91
"Oc1cccc(O)c1 [1,3 dihydroxybenzene]",17,30
